Reference: publication PMC12058022, “Promiscuous structural cross-compatibilities between major shell components of Klebsiella pneumoniae bacterial microcompartments” (PLOS One, 2025)
No constants are given. Whether binding was seen depends on the method and setting. In cells and extracts the contact can be indirect. Some results given as binding are weak or reduced against the parent protein; the word gives no strength. Tags and fused reporters may be left off the sequences shown.

B1: CcmK3 from Syn6803, GFP10 or GFP11 fusion (protein, UniProt P73406 1-103)
chain: MPQAVGVIQTLGFPSVLAAADAMLKGGRVTLVYYDLAERGNFVVAIRGPVSEVNLSMKMGLAAVNESVMGGEIVSHYIVPNPPENVLAVLPVEYTEKVARFRT
B2: PduJ, GFP10 or GFP11 fusion (tGFP screen) (protein, UniProt A6TDD7 1-91)
chain: MNNALGLVETKGLVGAIEAADAMVKSANVQLIGYEKIGSGLITVMVRGDVGAVKAAVDAGSAAASVVGEVKSSHVIPRPHSDVEAILPKSV

Key:
[1] = target: CcmK3 from Syn6803, GFP10 or GFP11 fusion (Synechocystis sp. PCC 6803) (UniProt P73406); experiment: split reporter; tripartite GFP (tGFP): one BMC-H fused to GFP10 and one to GFP11, co-expressed with GFP1-9 in E. coli T7 express, LB, 10 uM IPTG; Fmax as percent of RMM/RMM (C/C); up to 8 tag configurations a pair
[2] = target: PduJ, GFP10 or GFP11 fusion (tGFP screen) (Klebsiella pneumoniae (strain 342)) (UniProt A6TDD7); experiment: as above

Row | Binder | binding [1] | binding [2]
1 | B1 | no binding | 
2 | B2 |  | binds
